Assay results published in PMC8627557.
Results are given in words; binding and its absence hold for the method and conditions named. For part of these data: Binding seen in cells or lysates may run through a third protein. Some results given as binding are weak or reduced against the parent protein; the word gives no strength. Sequences can lack the tags named with a protein.

Chains of the proteins cited; added tags and fusions are not shown. Lines headed by an entry give the natural chain unless they say otherwise; changes in a name come on top.
UniProt Q9H3S7: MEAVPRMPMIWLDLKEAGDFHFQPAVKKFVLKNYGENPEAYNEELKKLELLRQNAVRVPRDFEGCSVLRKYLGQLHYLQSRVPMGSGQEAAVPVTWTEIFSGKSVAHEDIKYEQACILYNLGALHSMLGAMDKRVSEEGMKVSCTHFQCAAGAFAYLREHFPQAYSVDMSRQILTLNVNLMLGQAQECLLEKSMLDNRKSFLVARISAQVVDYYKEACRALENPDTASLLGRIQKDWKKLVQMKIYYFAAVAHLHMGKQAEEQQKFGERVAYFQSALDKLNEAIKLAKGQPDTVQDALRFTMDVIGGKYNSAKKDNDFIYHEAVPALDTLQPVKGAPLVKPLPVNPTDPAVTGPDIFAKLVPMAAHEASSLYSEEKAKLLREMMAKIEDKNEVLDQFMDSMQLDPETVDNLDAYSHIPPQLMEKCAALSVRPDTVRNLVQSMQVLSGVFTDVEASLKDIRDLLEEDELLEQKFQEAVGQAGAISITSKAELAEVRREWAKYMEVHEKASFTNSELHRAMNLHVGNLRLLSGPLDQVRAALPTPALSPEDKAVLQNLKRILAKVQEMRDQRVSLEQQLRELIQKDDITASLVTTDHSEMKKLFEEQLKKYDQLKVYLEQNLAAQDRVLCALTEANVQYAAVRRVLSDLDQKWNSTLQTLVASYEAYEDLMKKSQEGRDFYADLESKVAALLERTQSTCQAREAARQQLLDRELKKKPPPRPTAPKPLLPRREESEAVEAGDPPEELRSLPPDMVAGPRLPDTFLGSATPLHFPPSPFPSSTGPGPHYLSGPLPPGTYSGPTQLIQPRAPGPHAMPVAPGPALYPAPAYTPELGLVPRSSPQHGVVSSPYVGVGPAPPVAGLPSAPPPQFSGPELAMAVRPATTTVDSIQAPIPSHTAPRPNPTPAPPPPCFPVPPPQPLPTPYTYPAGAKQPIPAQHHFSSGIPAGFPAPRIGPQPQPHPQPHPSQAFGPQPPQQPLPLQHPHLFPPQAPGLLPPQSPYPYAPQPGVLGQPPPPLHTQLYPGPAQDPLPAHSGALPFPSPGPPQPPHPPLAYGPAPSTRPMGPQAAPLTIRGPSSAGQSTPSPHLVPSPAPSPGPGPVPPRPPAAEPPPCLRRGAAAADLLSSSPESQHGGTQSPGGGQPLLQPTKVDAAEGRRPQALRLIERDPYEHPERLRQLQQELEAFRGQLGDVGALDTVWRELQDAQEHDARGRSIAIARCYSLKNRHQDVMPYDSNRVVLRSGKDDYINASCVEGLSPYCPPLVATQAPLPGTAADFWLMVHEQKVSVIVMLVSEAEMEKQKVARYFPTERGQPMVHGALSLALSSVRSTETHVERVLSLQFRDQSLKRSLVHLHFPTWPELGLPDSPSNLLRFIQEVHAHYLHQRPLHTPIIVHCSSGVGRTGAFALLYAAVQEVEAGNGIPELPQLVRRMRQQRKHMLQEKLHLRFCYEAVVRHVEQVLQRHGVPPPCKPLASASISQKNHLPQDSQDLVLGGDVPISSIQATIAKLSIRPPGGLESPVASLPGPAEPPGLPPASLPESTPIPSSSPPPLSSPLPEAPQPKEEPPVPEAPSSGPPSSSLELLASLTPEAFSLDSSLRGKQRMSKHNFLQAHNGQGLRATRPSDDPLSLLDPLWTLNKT

Experiments:
[1] = target: full-length HA–HD-PTP (human) (UniProt Q9H3S7); test: co-IP; lysates of HEK293T cells transfected with HA–HD-PTP constructs (with co-transfected GFP–Rabaptin-5 constructs, or endogenous Rabaptin-5); IP with anti-HA in IP buffer (25 mM Tris-HCl pH 7.5, 150 mM NaCl, 0.5% IGEPAL CA-630), 4°C; western blot
FKBP–HD-PTP–Myc = FKBP–HD-PTP–Myc (UniProt Q9H3S7); test: mitochondrial relocation assay (rapamycin-induced FKBP/FRB targeting, immunofluorescence); HeLa cells expressing Mito-FRB, FKBP–HD-PTP–Myc and GFP or GFP–Rabaptin-5; 1 µM rapamycin for 180 min
[2] = target: HA–HD-PTP L202D/I206D (human) (UniProt Q9H3S7); test: co-IP; lysates of HEK293T cells transfected with HA–HD-PTP constructs (with co-transfected GFP–Rabaptin-5 constructs, or endogenous Rabaptin-5); IP with anti-HA in IP buffer (25 mM Tris-HCl pH 7.5, 150 mM NaCl, 0.5% IGEPAL CA-630), 4°C; western blot

| binding [1] | binding (FKBP–HD-PTP–Myc) | binding [2] | Binder |
| --- | --- | --- | --- |
| binds | – | – | GFP–Rabaptin-5 CC2-2 (domain or fragment, UniProt Q15276 661-805) SLQQAEDFILPDTTEALRELVLKYREDIINVRTAADHVEEKLKAEILFLKEQIQAEQCLKENLEETLQLEIENCKEEIASISSLKAELERIKVEKGQLESTLREKSQQLESLQEIKISLEEQLKKETAAKATVEQLMFEEKNKAQ |
| binds | – | – | GFP–Rabaptin-5 ΔR4BD (protein, UniProt Q15276) MAQPLEQERTQWAQYRESAEREIADLRRRLSEGQEEENLENEMKKAQEDAEKLRSVVMPMEKEIAALKDKLTEAEDKIKELEASKVKELNHYLEAEKSCRTDLEMYVAVLNTQKSVLQEDAEKLRKELHEVCHLLEQERQQHNQLKHTWQKANDQFLESQRLLMRDMQRMEIVLTSEQLRQVEELKKKDQEDDEQQRLNKRKDHKKADVEEEIKIPVVCALTQEESSAQLSNEEEHLDSTRGSVHSLDAGLLLPSGDPFSKSDNDMFKDGLRRAQSTDSLGTSGSLQSKALGYNYKAKSAGNLDESDFGPLVGADSVSENFDTASLGSLQMPSGFMLTKDQERAIKAMTPEQEETASLLSSVTQGMESAYVSPSGYRLVSETEWNLLQKEVHNAGNKLGRRCDMCSNYEKQLQGIQIQEAETRDQVKKLQLMLRQANDQLEKTMKDKQELEDFIKQSSEDSSHQISALVLRAQASEILLEELQQGLSQAKRDVQEQMAVLMQSREQVSEELVRLQKDNDSLQGKHSLHVSLQQAEDFILPDTTEALRELVLKYREDIINVRTAADHVEEKLKAEILFLKEQIQAEQCLKENLEETLQLEIENCKEEIASISSLKAELERIKVEKGQLESTLREKSQQLESLQEIKISLEEQLKKETAAKATVEQLMFEEKNKAQRLQTELDVSEQVQRDFVKLSQTLQVQLERIRQADSLERIRAILNDTKLTDINQLPET |
| binds | binds | binds | GFP–Rabaptin-5 (protein, UniProt Q15276 1-862) MAQPGPASQPDVSLQQRVAELEKINAEFLRAQQQLEQEFNQKRAKFKELYLAKEEDLKRQNAVLQAAQDDLGHLRTQLWEAQAEMENIKAIATVSENTKQEAIDEVKRQWREEVASLQAVMKETVRDYEHQFHLRLEQERTQWAQYRESAEREIADLRRRLSEGQEEENLENEMKKAQEDAEKLRSVVMPMEKEIAALKDKLTEAEDKIKELEASKVKELNHYLEAEKSCRTDLEMYVAVLNTQKSVLQEDAEKLRKELHEVCHLLEQERQQHNQLKHTWQKANDQFLESQRLLMRDMQRMEIVLTSEQLRQVEELKKKDQEDDEQQRLNKRKDHKKADVEEEIKIPVVCALTQEESSAQLSNEEEHLDSTRGSVHSLDAGLLLPSGDPFSKSDNDMFKDGLRRAQSTDSLGTSGSLQSKALGYNYKAKSAGNLDESDFGPLVGADSVSENFDTASLGSLQMPSGFMLTKDQERAIKAMTPEQEETASLLSSVTQGMESAYVSPSGYRLVSETEWNLLQKEVHNAGNKLGRRCDMCSNYEKQLQGIQIQEAETRDQVKKLQLMLRQANDQLEKTMKDKQELEDFIKQSSEDSSHQISALVLRAQASEILLEELQQGLSQAKRDVQEQMAVLMQSREQVSEELVRLQKDNDSLQGKHSLHVSLQQAEDFILPDTTEALRELVLKYREDIINVRTAADHVEEKLKAEILFLKEQIQAEQCLKENLEETLQLEIENCKEEIASISSLKAELERIKVEKGQLESTLREKSQQLESLQEIKISLEEQLKKETAAKATVEQLMFEEKNKAQRLQTELDVSEQVQRDFVKLSQTLQVQLERIRQADSLERIRAILNDTKLTDINQLPET |
| binds | – | – | endogenous Rabaptin-5 (protein, UniProt Q15276 1-862) MAQPGPASQPDVSLQQRVAELEKINAEFLRAQQQLEQEFNQKRAKFKELYLAKEEDLKRQNAVLQAAQDDLGHLRTQLWEAQAEMENIKAIATVSENTKQEAIDEVKRQWREEVASLQAVMKETVRDYEHQFHLRLEQERTQWAQYRESAEREIADLRRRLSEGQEEENLENEMKKAQEDAEKLRSVVMPMEKEIAALKDKLTEAEDKIKELEASKVKELNHYLEAEKSCRTDLEMYVAVLNTQKSVLQEDAEKLRKELHEVCHLLEQERQQHNQLKHTWQKANDQFLESQRLLMRDMQRMEIVLTSEQLRQVEELKKKDQEDDEQQRLNKRKDHKKADVEEEIKIPVVCALTQEESSAQLSNEEEHLDSTRGSVHSLDAGLLLPSGDPFSKSDNDMFKDGLRRAQSTDSLGTSGSLQSKALGYNYKAKSAGNLDESDFGPLVGADSVSENFDTASLGSLQMPSGFMLTKDQERAIKAMTPEQEETASLLSSVTQGMESAYVSPSGYRLVSETEWNLLQKEVHNAGNKLGRRCDMCSNYEKQLQGIQIQEAETRDQVKKLQLMLRQANDQLEKTMKDKQELEDFIKQSSEDSSHQISALVLRAQASEILLEELQQGLSQAKRDVQEQMAVLMQSREQVSEELVRLQKDNDSLQGKHSLHVSLQQAEDFILPDTTEALRELVLKYREDIINVRTAADHVEEKLKAEILFLKEQIQAEQCLKENLEETLQLEIENCKEEIASISSLKAELERIKVEKGQLESTLREKSQQLESLQEIKISLEEQLKKETAAKATVEQLMFEEKNKAQRLQTELDVSEQVQRDFVKLSQTLQVQLERIRQADSLERIRAILNDTKLTDINQLPET |
